Laboratory results from patent publication US20060062777A1.
These are yes or no findings as the source states them, for the method shown. Some results given as binding are weak or reduced against the parent protein; the word gives no strength.

Amino acid sequences for entries named in this document (tags omitted). Residues count along the entry.
UniProt P14780, residues 20-707: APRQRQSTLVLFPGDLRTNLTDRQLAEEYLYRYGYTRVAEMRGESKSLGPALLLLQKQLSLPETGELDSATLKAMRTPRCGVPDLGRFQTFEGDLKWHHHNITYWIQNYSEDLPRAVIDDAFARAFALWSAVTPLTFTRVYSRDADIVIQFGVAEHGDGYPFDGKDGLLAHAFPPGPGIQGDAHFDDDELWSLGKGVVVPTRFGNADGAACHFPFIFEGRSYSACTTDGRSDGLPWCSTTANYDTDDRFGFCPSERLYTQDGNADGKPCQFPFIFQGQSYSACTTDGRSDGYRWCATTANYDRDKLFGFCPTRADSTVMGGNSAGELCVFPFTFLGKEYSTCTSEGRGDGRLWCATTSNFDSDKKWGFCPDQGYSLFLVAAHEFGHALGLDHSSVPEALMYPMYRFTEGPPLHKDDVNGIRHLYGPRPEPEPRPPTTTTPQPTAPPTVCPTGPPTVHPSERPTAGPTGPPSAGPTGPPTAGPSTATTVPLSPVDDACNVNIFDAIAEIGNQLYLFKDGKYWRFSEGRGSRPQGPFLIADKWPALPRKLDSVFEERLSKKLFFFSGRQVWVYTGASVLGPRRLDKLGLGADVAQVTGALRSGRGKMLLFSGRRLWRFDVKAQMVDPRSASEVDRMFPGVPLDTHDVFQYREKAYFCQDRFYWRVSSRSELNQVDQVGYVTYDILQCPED

Key:
[1] = biological target: Recombinant human MMP-9 (human) (UniProt P14780); assay: summary of the examples
[2] = biological target: Recombinant human MMP-9 (human) (UniProt P14780); assay: solid phase binding assay

binding [1]: binds
binding [2]: binds
B1: FRIP-1 synthetic peptide (peptide)
peptide: CRLRSGEPQC
